Test results reported in publication PMC12069340 (Frontiers in Cellular and Infection Microbiology, 2025).

Test system: A/PuertoRico/8/1934 (H1N1) virus
Assay: microbe, parasite or virus in culture
Format: cell-based
Settings: Influenza A virus, H1N1, U-937, 48 h, read-out: NA Inhibition (%)

## CN1CC2c3ccccc3Oc3ccc(Cl)cc3C2C1 (stereo not shown) [Asenapine]
  inhibition at 20 µM: 0.2%
